Article PMC12709185
No constants are given. Whether binding was seen depends on the method and setting. In cells and extracts the contact can be indirect. Some entries that bind do so weakly or less than the wild type. Tags and fused reporters may be left off the sequences shown.

By UniProt entry, the sequences of proteins in these tests, tags left out. Where a name states a change or a piece, a line headed by the entry shows the natural chain unless it says otherwise.
UniProt P26368: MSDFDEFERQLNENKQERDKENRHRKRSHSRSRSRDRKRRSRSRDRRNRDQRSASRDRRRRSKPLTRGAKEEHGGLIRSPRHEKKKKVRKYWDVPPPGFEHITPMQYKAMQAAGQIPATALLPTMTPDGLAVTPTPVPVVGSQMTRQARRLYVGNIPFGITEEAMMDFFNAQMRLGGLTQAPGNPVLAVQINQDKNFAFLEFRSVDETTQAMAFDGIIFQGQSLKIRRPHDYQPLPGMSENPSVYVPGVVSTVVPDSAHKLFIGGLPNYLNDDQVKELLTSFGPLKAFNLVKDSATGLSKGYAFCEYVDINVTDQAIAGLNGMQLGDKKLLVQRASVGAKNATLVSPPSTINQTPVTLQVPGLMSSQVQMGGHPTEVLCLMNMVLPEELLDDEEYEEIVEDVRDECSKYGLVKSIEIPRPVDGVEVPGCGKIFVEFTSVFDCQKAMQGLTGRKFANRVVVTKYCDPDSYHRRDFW

Tests used:
Test in all cases: co-IP; HEK293T cells co-expressing U2AF2::FLAG and U2AF1::HA lysed in NP-40 buffer; Protein A/G magnetic beads pre-incubated with anti-HA or anti-FLAG antibody; western blot
[1] = biological target: T1, hU2AF1::HA (human U2AF1, wild type) (human) (UniProt Q01081)
T1 sequence: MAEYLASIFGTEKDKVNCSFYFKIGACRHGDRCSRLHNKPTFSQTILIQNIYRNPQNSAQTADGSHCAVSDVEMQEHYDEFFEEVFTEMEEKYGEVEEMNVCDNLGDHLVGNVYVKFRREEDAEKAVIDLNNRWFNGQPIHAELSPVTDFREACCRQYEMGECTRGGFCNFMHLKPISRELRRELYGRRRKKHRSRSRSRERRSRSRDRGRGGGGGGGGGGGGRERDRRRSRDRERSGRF

[2] = biological target: hU2AF2(T145I)::FLAG (human U2AF2 T145I) (human) (UniProt P26368)
[3] = biological target: hU2AF2::FLAG (human U2AF2, wild type) (human) (UniProt P26368)

## hU2AF2::FLAG (human U2AF2, wild type) (from UniProt P26368-1 1-475)
[1]
  binding: binds

## hU2AF2(T145I)::FLAG (human U2AF2 T145I) (from UniProt P26368-1 1-475)
[1]
  binding: binds

B1: hU2AF1::HA (human U2AF1, wild type) (protein, UniProt Q01081-2 1-240)
chain: T1 sequence
[2]
  binding: binds
[3]
  binding: binds
